Measured values published in publication PMC8384837.
Substitutions are numbered along the chain they refer to. This is one part of the list.

Columns and labels:
Settings in all cases: yeast three-hybrid, YBZ-1, SC-Leu-His + 0.5 mM 3-AT, 4 days
[1] = biological target: T1, PUM1 PUF domain R3-AIE C935A + R936I + Q939E (Homo sapiens) (UniProt Q14671)
T1 sequence: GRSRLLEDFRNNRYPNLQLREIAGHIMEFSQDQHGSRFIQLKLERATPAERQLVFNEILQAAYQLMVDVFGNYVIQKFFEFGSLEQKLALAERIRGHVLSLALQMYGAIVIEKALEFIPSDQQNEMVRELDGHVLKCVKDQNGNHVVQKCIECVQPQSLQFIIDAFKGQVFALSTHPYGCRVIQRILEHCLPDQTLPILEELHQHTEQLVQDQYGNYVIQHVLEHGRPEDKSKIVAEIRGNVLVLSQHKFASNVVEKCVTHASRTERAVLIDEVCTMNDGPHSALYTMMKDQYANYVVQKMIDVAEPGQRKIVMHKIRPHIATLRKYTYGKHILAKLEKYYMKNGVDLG

[2] = biological target: T2, PUM1 PUF domain R3-KPG C935K + R936P + Q939G (Homo sapiens) (UniProt Q14671)
T2 sequence: T1 sequence with A108K, I109P, E112G

[3] = biological target: T3, PUM1 PUF domain R3-LRS C935L + Q939S (Homo sapiens) (UniProt Q14671)
T3 sequence: T1 sequence with A108L, I109R, E112S

[4] = biological target: T4, PUM1 PUF domain R3-LRV C935L + Q939V (Homo sapiens) (UniProt Q14671)
T4 sequence: T1 sequence with A108L, I109R, E112V

[5] = biological target: T5, PUM1 PUF domain R3-MCR C935M + R936C + Q939R (Homo sapiens) (UniProt Q14671)
T5 sequence: T1 sequence with A108M, I109C, E112R

[6] = biological target: T6, PUM1 PUF domain R3-QRG C935Q + Q939G (Homo sapiens) (UniProt Q14671)
T6 sequence: T1 sequence with A108Q, I109R, E112G

[7] = biological target: T7, PUM1 PUF domain R3-RAY C935R + R936A + Q939Y (Homo sapiens) (UniProt Q14671)
T7 sequence: T1 sequence with A108R, I109A, E112Y

[8] = biological target: T8, PUM1 PUF domain R3-RCW C935R + R936C + Q939W (Homo sapiens) (UniProt Q14671)
T8 sequence: T1 sequence with A108R, I109C, E112W

[9] = biological target: T9, PUM1 PUF domain R3-RGG C935R + R936G + Q939G (Homo sapiens) (UniProt Q14671)
T9 sequence: T1 sequence with A108R, I109G, E112G

[10] = biological target: T10, PUM1 PUF domain R3-RQL C935R + R936Q + Q939L (Homo sapiens) (UniProt Q14671)
T10 sequence: T1 sequence with A108R, I109Q, E112L

[11] = biological target: T11, PUM1 PUF domain R3-RQV C935R + R936Q + Q939V (Homo sapiens) (UniProt Q14671)
T11 sequence: T1 sequence with A108R, I109Q, E112V

[12] = biological target: T12, PUM1 PUF domain R3-RRA C935R + Q939A (Homo sapiens) (UniProt Q14671)
T12 sequence: T1 sequence with A108R, I109R, E112A

[13] = biological target: T13, PUM1 PUF domain R3-RRW C935R + Q939W (Homo sapiens) (UniProt Q14671)
T13 sequence: T1 sequence with A108R, I109R, E112W

[14] = biological target: T14, PUM1 PUF domain R3-RTL C935R + R936T + Q939L (Homo sapiens) (UniProt Q14671)
T14 sequence: T1 sequence with A108R, I109T, E112L

[15] = biological target: T15, PUM1 PUF domain R3-SCR C935S + R936C + Q939R (Homo sapiens) (UniProt Q14671)
T15 sequence: T1 sequence with A108S, I109C, E112R

[16] = biological target: T16, PUM1 PUF domain R3-SND C935S + R936N + Q939D (Homo sapiens) (UniProt Q14671)
T16 sequence: T1 sequence with A108S, I109N, E112D

[17] = biological target: T17, PUM1 PUF domain R3-WCR C935W + R936C + Q939R (Homo sapiens) (UniProt Q14671)
T17 sequence: T1 sequence with A108W, I109C, E112R

[18] = biological target: T18, PUM1 PUF domain R3-WWV C935W + R936W + Q939V (Homo sapiens) (UniProt Q14671)
T18 sequence: T1 sequence with A108W, I109W, E112V

[19] = biological target: T19, PUM1 PUF domain R3-WYR C935W + R936Y + Q939R (Homo sapiens) (UniProt Q14671)
T19 sequence: T1 sequence with A108W, I109Y, E112R

[20] = biological target: T20, PUM1 PUF domain R3-YRR C935Y + Q939R (Homo sapiens) (UniProt Q14671)
T20 sequence: T1 sequence with A108Y, I109R, E112R

Sequence: GGCUAGAACUAGUGGAUCCCCCGGCGCCCGGCGGCUCGAGCCCGGGUAAGUGUAAAUAGUCUGCAUGCCGCCGGGCGCCAUGCCUGCAGGUCGACUCUAGAAAACAUG
- binding signal (log2 enrichment (interaction score)) [1]: -1.03
- binding signal (log2 enrichment (interaction score)) [2]: -0.64
- binding signal (log2 enrichment (interaction score)) [3]: -1.11
- binding signal (log2 enrichment (interaction score)) [4]: -0.45
- binding signal (log2 enrichment (interaction score)) [5]: -1.04
- binding signal (log2 enrichment (interaction score)) [6]: -1.06
- binding signal (log2 enrichment (interaction score)) [7]: -1.14
- binding signal (log2 enrichment (interaction score)) [8]: -0.94
- binding signal (log2 enrichment (interaction score)) [9]: -1.74
- binding signal (log2 enrichment (interaction score)) [10]: -0.95
- binding signal (log2 enrichment (interaction score)) [11]: -0.68
- binding signal (log2 enrichment (interaction score)) [12]: -1.99
- binding signal (log2 enrichment (interaction score)) [13]: -0.79
- binding signal (log2 enrichment (interaction score)) [14]: -1.46
- binding signal (log2 enrichment (interaction score)) [15]: -0.51
- binding signal (log2 enrichment (interaction score)) [16]: -0.73
- binding signal (log2 enrichment (interaction score)) [17]: -0.73
- binding signal (log2 enrichment (interaction score)) [18]: -0.51
- binding signal (log2 enrichment (interaction score)) [19]: -1.04
- binding signal (log2 enrichment (interaction score)) [20]: -0.85
